Measured values: publication PMC10374059

By UniProt entry, the sequences of proteins in these tests, tags left out. Where a name states a change or a piece, a line headed by the entry shows the natural chain unless it says otherwise.
UniProt Q57XN5: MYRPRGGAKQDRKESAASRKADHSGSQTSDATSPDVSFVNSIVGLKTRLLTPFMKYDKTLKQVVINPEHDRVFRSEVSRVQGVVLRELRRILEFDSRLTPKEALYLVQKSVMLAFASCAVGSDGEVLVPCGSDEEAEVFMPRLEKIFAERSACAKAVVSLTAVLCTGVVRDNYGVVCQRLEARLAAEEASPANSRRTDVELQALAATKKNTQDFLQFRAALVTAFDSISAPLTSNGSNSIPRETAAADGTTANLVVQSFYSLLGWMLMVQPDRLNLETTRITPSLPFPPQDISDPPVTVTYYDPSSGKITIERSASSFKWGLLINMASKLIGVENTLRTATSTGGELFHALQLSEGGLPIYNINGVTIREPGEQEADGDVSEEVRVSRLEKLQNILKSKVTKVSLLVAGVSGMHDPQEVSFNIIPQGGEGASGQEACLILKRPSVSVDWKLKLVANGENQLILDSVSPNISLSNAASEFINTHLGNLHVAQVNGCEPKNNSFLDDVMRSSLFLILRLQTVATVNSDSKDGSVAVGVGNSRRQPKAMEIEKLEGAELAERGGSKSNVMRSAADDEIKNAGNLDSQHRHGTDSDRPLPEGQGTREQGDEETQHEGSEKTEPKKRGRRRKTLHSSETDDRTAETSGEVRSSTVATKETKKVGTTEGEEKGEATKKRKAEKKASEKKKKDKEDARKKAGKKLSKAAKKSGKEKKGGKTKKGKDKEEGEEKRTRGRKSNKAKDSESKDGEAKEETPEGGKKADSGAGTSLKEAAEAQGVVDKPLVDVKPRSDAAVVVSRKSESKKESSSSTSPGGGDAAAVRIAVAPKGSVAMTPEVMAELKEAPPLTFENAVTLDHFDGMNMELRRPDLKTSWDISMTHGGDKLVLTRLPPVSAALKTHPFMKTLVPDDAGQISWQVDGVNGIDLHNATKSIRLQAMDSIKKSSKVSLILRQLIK
UniProt Q581S0: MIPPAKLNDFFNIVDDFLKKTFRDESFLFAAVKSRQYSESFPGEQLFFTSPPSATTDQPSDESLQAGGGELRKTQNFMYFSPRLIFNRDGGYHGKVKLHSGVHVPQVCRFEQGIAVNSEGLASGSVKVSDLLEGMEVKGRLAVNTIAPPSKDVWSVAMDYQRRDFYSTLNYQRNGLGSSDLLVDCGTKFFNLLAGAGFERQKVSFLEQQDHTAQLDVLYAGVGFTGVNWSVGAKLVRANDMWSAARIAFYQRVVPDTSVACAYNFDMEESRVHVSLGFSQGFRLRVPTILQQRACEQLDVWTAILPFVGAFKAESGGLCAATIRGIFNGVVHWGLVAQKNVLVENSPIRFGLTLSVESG
UniProt Q57WR0: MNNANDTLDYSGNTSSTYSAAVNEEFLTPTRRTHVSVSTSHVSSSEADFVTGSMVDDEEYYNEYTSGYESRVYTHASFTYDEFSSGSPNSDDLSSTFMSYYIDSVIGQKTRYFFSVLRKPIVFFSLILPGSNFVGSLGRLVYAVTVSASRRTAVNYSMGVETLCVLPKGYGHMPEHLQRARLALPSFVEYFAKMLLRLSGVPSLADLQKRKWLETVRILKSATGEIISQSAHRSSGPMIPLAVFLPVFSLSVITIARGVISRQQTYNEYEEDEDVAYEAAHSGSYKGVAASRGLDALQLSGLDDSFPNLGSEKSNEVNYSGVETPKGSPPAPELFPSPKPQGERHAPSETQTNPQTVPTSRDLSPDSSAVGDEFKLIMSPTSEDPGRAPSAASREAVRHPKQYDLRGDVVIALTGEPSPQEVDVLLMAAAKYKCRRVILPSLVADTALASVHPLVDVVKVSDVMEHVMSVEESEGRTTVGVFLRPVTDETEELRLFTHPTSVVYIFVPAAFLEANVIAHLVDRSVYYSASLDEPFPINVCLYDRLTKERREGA
UniProt Q57W28: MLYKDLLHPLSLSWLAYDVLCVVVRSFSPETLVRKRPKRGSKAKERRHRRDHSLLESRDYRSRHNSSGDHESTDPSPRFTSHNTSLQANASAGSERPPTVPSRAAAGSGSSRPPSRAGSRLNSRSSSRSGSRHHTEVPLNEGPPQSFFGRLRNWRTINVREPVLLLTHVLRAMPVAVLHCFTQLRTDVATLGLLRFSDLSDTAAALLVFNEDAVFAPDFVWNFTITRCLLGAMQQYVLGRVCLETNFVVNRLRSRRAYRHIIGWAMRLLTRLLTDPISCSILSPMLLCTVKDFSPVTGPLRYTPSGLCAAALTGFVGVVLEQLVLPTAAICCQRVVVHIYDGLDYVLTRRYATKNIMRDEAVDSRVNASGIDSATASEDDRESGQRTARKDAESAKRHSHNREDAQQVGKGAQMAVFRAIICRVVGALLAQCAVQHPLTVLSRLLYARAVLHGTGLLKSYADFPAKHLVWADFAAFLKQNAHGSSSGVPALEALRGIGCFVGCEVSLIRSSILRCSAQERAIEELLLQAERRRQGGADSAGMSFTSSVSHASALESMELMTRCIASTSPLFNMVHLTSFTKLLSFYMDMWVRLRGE
UniProt Q381H4: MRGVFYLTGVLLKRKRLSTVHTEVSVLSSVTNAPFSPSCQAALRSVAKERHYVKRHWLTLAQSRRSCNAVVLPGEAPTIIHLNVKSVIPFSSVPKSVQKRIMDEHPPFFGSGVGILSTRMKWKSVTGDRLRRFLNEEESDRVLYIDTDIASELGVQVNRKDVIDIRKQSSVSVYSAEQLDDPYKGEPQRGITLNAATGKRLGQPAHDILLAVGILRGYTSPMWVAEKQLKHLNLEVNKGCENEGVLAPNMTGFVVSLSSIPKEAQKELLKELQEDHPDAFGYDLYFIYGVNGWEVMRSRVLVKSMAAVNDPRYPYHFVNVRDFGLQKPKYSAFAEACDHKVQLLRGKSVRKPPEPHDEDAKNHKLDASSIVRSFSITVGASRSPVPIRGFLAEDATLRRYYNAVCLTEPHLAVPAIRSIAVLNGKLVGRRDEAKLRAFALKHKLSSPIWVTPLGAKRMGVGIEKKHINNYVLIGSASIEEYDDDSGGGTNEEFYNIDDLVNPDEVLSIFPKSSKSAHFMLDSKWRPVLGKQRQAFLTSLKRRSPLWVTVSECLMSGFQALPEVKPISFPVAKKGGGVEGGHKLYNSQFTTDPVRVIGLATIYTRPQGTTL

Molecular target: YFP tagged version of TAC102 (T. brucei) (UniProt Q57XN5)
Test: affinity purification with mass spectrometry; YFP-TAC102 from PCF cells; cytoskeletons extracted and sonicated, 0.2 M NaCl step, pellet in 0.05% Nonidet P-40 in PBS sonicated again, dynabeads crosslinked with anti-GFP antibody; eluate against flow-through

Row | binding | Substance
1 | binds | TAC40 (from UniProt Q581S0)
2 | binds | TAC60 (from UniProt Q57WR0)
3 | binds | TAC65 (from UniProt Q57W28)
4 | binds | TbKAP68 (Tb927.11.16120), endogenous (from UniProt Q381H4)

Results are given in words; binding and its absence hold for the method and conditions named. In cells and extracts the contact can be indirect. Here binding means that the protein was enriched with, or labelled near, the bait; the list need not be complete.
